Reference: US20060099170A1, “Compositions for inducing increased levels of beta-chemokines and methods of use therefor” (priority 2002, published 2006)
At least one compound was matched to its structure with a doubt left.

Assays:
PBMCs [1] = assay: PBMC proliferation and viability (MTT assay)
Method: Cultures of peripheral blood mononuclear cells (PBMCs) and monocyte-derived macrophages (MDMs) were performed on normal donors as described (Poli, et al. 1993, Perno, et al., 1993). PBMCs were maintained in the presence of 100 units/ml rhIL-2 (Roche Molecular Biochemicals). Cell viability was determined by Trypan blue staining or by the MTT assay (Roche Molecular Biochemicals). RAPA was purchased from Calbiochem. The CCR5 antagonist TAK-779 was obtained from the National Institutes of Health AIDS Research and Reference Reagent Program (Rockville, Md.). CCR5 surface expression was measured on PBMCs cultured in the presence of IL-2 for 7-10 days. Staining was done as described (Lane, et al. 1999), but using CCR5 mAb 182 (R & D Systems). Background staining was determined by adding an isotype-matched control (IgG2b, R&D Systems) instead of the anti-CCR5 mAb. Data were acquired by using a FACS Calibur flow cytometer (BD Biosciences) and analyzed by using FLOWJO (Tree Star, San Carlos, Calif.).
Donor PBMCs were cultured in the presence of IL-2 and RAPA (10-fold serial dilutions, from 10^4 to 0.01 nM).

PBMCs [2] = assay: β-chemokine levels (ELISA) in supernatants of IL-2 PBMC cultures with RAPA; assay type: cell-based, human
Method: RAPA was purchased from Calbiochem.
Levels of the β-chemokines MIP-1α, MIP-1β and RANTES were measured in culture supernatants by using ELISA kits (R & D Systems).
We next measured levels of the CCR5 ligands MIP-1α, MIP-1β, and RANTES in supernatants of RAPA-treated PBMC cultures. PBMCs from four donors were cultured in the presence of IL-2 and RAPA for 10 days. […] Among the different donors, RAPA-treated cultures contained 6-39-fold higher levels of MIP-1α than untreated cultures. Similarly, MIP-1β levels were increased 17-47-fold in the presence of RAPA as compared with untreated controls. […] Chemokine results obtained in two of the donors, showing disparity of RANTES levels in the presence of RAPA, are depicted in FIG. 8A.
The effect of RAPA on MIP-1β protein levels provided information regarding the mechanism by which RAPA increases β-chemokine levels. To this end, stimulated PBMCs from two normal donors and from a CCR5-null donor were cultured in the presence of RAPA as in previous experiments. MIP-1β levels in supernatants were evaluated on day 10. Representative results obtained in one of the normal donors are shown next to the results obtained on the CCR5-null donor (FIG. 8B).
PBMCs from a healthy donor were cultured in the presence of IL-2 and Rapamycin. On day 7, chemokines content in the supernatant was measured by ELISA and cell viability was determined by the MTT assay.

HIV-1 IIIb [3] = assay: Antiviral activity of RAPA in PBMCs (p24); assay type: cell-based; conditions: 0.01, 0.1 and 1 nM RAPA
Method: The following viruses were used in infection experiments, including HIV-1 IIIb, HIV-1 ADA, HIV-1 BaL, HIV-1 JRFL, HIV-1 JRCSF, and HIV-1 SF162. HIV-1 IIIb is a T cell line-adapted lab strain that uses CXCR4 for entry into cells, whereas the rest are isolates that use CCR5.
For infection of PBMCs, fresh donor PBMCs were cultured for 7 days in medium containing IL-2. On day 7, cells were exposed to the virus for 3 h. Nonadsorbed virus was removed by washing cells with PBS three times. Infected cells were cultured in IL-2 medium. Infection of MDMs was carried out as described before (Pemo, et al. 1993). Unless otherwise indicated, PBMCs were infected by using a moi of 0.001, and monocyte-derived macrophages (MDMs) were infected by using a moi of 0.002. Virus growth was monitored in culture supernatants by measuring p24 antigen levels by ELISA (NEN) or by measuring viral RT activity in an RT assay (Willey, et al., 1988).
The antiviral activity of RAPA was assayed in PBMCs that had been cultured in the presence of RAPA for 7 days before infection. Cells were infected with the X4 HIV-1 IIIb and the R5 HIV-1 ADA strains. Infected cells were cultured in the presence of RAPA (same concentration as during pretreatment) for 7 additional days, during which time virus replication and cell viability were measured. […]

HIV-1 ADA = assay: HIV-1 DNA in PBMC lysates 24 h after infection (DNA PCR, phosphoimager); assay type: cell-based; conditions: 100 nM RAPA
HIV-1 IIIb [4] = assay: as above; assay type: cell-based; conditions: 100 nM RAPA
β-Chemokines = assay: In vivo effect of Rapamycin on β-chemokines in healthy volunteers; design: species or system human; conditions: for MIP-1β / RANTES: 2 mg/day Rapamycin, 14 days, peripheral blood
activated PBMCs = assay: β-chemokine levels (ELISA) in supernatants of activated PBMCs cultured with cell cycle arresting compounds; assay type: cell-based, human; conditions: at G1 cytostatic concentrations of the drug, PHA-activated PBMCs

Row | SMILES | antiproliferative effects on cells (PBMCs [1]; 1 nM RAPA) | cell proliferation (PBMCs [1]; 0.01 and 0.1 nM RAPA) | levels of RANTES (PBMCs [2]; IL-2 and RAPA for 10 days, four donors) | chemokines content in the supernatant (PBMCs [2]; IL-2 and Rapamycin, day 7, FIGS. 15A and B) | antiviral activity against HIV-1 IIIb (HIV-1 IIIb [3]) | HIV-1 ADA DNA content, RAPA-treated versus untreated cells (HIV-1 ADA) | HIV-1 IIIb DNA content, RAPA-treated versus untreated cells (HIV-1 IIIb [4]) | MIP-1β (β-Chemokines; Patient 002) | RANTES (β-Chemokines; Patient 002) | MIP-1β (β-Chemokines; Patient 003) | RANTES (β-Chemokines; Patient 003) | MIP-1β (β-Chemokines; Patient 004) | RANTES (β-Chemokines; Patient 004) | MIP-1β (β-Chemokines; Patient 005) | RANTES (β-Chemokines; Patient 005) | MIP-1β (β-Chemokines; Patient 006) | RANTES (β-Chemokines; Patient 006) | β-Chemokine levels over baseline (β-Chemokines; all 5 subjects, during Rapamycin therapy 2 mg/day) | β-Chemokine levels at day 28 (β-Chemokines; two weeks after last dose) | chemokine levels (activated PBMCs)
1 | CO[C@H]1C[C@@H]2CC[C@@H](C)[C@@](O)(O2)C(=O)C(=O)N2CCCC[C@H]2C(=O)O[C@H]([C@H](C)C[C@@H]2CC[C@@H](O)[C@H](OC)C2)CC(=O)[C@H](C)/C=C(\C)[C@@H](O)[C@@H](OC)C(=O)[C@H](C)C[C@H](C)/C=C/C=C/C=C/1C [RAPA, rapamycin] | mild antiproliferative effects | without affecting cell proliferation | increased in two donors while remaining unchanged or even decreasing in the others | increase of chemokines | but not against HIV-1 IIIb | three times lower | the same | ↑ | ↑ | ↑ | ↑ | ↑ | ↑ | ↑ | ↑ | ↑ | ↓ | increase | returned to baseline | 
2 | Cn1cnc2c(NCc3ccccc3)nc(NCCO)nc21 [OL, olomoucine] |  |  |  |  |  |  |  |  |  |  |  |  |  |  |  |  |  |  |  | increased chemokine levels
